The values that follow come from paper PMC7919836.

Chains of the proteins cited; added tags and fusions are not shown.
UniProt Q14694: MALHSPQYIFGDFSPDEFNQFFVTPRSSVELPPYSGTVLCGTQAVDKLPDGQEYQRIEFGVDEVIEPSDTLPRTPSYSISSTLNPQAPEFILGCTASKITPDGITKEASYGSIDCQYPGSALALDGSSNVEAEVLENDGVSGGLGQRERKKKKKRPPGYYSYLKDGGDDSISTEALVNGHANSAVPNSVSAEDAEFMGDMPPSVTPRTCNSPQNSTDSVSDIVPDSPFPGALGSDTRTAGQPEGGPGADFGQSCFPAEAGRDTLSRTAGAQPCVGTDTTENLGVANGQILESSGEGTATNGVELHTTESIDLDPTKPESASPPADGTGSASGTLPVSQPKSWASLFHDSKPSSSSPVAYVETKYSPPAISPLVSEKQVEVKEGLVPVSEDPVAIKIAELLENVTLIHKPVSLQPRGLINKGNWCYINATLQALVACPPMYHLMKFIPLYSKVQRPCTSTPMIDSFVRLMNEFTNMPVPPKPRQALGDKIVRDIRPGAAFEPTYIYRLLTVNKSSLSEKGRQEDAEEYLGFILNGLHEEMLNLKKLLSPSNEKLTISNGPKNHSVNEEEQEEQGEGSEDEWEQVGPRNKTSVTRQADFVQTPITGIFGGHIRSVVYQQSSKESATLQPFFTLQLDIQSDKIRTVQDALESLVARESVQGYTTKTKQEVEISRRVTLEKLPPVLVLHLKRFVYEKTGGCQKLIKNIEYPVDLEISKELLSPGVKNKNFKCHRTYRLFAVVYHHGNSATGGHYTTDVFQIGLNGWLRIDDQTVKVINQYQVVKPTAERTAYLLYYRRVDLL

Common to all, as to test: pull-down; SFB-tagged DUB (or OTUD6A full length or truncated) and MYC-tagged Aurora-A (full length or truncated) co-transfected into HEK293T; lysis in NETN buffer; DUB pulled down with S-protein beads at 4 °C overnight; Aurora-A blotted with MYC antibody
In assay [1] the target is T1, SFB-tagged OTUD1 (human) (UniProt Q5VV17).
T1 sequence: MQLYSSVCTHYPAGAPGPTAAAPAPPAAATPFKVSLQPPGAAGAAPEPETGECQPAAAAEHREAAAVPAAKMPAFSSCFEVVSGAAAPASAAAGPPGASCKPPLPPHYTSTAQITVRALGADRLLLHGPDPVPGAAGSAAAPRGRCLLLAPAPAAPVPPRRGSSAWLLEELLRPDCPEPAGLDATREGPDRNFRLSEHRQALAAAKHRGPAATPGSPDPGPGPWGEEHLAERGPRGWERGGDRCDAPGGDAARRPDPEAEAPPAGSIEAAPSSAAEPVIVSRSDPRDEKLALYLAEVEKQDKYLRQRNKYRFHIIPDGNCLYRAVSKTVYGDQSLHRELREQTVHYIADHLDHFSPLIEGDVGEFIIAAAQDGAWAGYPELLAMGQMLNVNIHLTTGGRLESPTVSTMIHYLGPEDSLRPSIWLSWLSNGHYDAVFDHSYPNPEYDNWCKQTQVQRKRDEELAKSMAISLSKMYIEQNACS

Assay [2] concerns the target T2, SFB-tagged OTUD6A^ΔCt (C-terminal-deleted, aa 1-275) (human) (UniProt Q7L8S5).
T2 sequence: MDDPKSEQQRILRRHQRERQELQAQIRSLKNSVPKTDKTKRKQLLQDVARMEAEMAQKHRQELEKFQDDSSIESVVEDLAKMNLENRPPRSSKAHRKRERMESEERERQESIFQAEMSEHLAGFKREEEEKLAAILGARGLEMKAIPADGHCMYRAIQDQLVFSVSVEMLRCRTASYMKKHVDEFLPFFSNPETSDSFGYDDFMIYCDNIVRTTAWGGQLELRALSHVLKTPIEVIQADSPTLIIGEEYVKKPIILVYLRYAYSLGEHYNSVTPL

Assay [3] concerns the target T3, SFB-tagged OTUD6A^ΔOTU (OTU-domain-deleted, aa 1-140 & 276-288) (human) (UniProt Q7L8S5).
T3 sequence: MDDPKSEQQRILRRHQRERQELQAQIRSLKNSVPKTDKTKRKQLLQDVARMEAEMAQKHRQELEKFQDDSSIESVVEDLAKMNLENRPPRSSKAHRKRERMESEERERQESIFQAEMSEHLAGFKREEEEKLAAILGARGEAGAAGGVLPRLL

The target in assay [4] is SFB-tagged USP10 (human) (UniProt Q14694).
Assay [5] addresses T4, SFB-tagged USP2 (human) (UniProt O75604).
T4 sequence: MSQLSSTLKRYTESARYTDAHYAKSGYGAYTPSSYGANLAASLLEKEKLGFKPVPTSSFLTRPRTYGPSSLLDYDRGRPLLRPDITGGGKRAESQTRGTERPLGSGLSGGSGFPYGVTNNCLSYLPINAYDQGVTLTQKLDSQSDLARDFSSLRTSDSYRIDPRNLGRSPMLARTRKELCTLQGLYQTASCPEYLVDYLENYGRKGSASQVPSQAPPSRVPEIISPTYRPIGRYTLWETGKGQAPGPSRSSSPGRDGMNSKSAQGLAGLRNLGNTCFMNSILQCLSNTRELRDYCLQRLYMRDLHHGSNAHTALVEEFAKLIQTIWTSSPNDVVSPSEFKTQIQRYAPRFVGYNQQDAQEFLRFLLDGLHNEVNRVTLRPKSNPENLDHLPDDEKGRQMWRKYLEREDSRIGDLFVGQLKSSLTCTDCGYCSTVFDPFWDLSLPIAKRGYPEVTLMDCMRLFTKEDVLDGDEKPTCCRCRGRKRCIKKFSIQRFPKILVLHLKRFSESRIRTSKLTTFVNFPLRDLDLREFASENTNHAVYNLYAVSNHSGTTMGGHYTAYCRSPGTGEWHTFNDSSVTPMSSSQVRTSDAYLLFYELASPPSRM

No constants are given. Whether binding was seen depends on the method and setting. In cells and extracts the contact can be indirect. Some entries that bind do so weakly or less than the wild type. Tags and fused reporters may be left off the sequences shown.

B1: MYC-tagged Aurora kinase A, full-length wild type (aa 1-403) (protein, UniProt O14965 1-403)
chain: MDRSKENCISGPVKATAPVGGPKRVLVTQQFPCQNPLPVNSGQAQRVLCPSNSSQRIPLQAQKLVSSHKPVQNQKQKQLQATSVPHPVSRPLNNTQKSKQPLPSAPENNPEEELASKQKNEESKKRQWALEDFEIGRPLGKGKFGNVYLAREKQSKFILALKVLFKAQLEKAGVEHQLRREVEIQSHLRHPNILRLYGYFHDATRVYLILEYAPLGTVYRELQKLSKFDEQRTATYITELANALSYCHSKRVIHRDIKPENLLLGSAGELKIADFGWSVHAPSSRRTTLCGTLDYLPPEMIEGRMHDEKVDLWSLGVLCYEFLVGKPPFEANTYQETYKRISRVEFTFPDFVTEGARDLISRLLKHNPSQRPMLREVLEHPWITANSSKPSNCQNKESASKQS
Take B1: the binding result in assay [1] is reported as “binds”; in assay [2], “binds”; in assay [3], “no binding”; in assay [4], “binds”; in assay [5] it was “no binding”.
